# These are yes or no findings as the source states them, for the method shown. Binding seen in cells or lysates may run through a third protein. Here binding means that the protein was enriched with, or labelled near, the bait; the list need not be complete.
# Protein sequences, listed by entry. Tags and fused reporters are not part of them.
# UniProt P04406: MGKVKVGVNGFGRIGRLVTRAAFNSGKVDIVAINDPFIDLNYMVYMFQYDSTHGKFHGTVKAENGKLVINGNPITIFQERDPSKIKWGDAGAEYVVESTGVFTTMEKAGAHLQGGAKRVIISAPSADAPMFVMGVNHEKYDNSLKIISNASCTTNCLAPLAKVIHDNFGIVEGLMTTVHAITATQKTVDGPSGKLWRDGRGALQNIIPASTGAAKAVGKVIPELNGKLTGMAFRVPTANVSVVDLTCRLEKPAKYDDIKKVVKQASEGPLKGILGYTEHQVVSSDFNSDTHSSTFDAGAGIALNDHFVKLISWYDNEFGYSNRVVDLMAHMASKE
# T1: Maspin (SERPINB5) (human (endogenous in MCF-10A)) (UniProt P36952)
# T1 sequence: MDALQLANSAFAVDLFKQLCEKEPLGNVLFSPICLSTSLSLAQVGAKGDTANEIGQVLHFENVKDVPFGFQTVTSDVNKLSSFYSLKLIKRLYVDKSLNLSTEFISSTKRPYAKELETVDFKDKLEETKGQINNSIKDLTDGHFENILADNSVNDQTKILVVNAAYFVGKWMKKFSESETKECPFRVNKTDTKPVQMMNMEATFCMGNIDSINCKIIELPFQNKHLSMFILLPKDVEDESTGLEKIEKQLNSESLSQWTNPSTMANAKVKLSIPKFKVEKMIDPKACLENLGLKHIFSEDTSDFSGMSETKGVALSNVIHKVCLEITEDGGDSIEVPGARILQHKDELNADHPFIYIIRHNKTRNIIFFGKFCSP
# B1: hnRNPM (protein, UniProt P52272 1-730)
# chain: MAAGVEAAAEVAATEIKMEEESGAPGVPSGNGAPGPKGEGERPAQNEKRKEKNIKRGGNRFEPYANPTKRYRAFITNIPFDVKWQSLKDLVKEKVGEVTYVELLMDAEGKSRGCAVVEFKMEESMKKAAEVLNKHSLSGRPLKVKEDPDGEHARRAMQKVMATTGGMGMGPGGPGMITIPPSILNNPNIPNEIIHALQAGRLGSTVFVANLDYKVGWKKLKEVFSMAGVVVRADILEDKDGKSRGIGTVTFEQSIEAVQAISMFNGQLLFDRPMHVKMDERALPKGDFFPPERPQQLPHGLGGIGMGLGPGGQPIDANHLNKGIGMGNIGPAGMGMEGIGFGINKMGGMEGPFGGGMENMGRFGSGMNMGRINEILSNALKRGEIIAKQGGGGGGGSVPGIERMGPGIDRLGGAGMERMGAGLGHGMDRVGSEIERMGLVMDRMGSVERMGSGIERMGPLGLDHMASSIERMGQTMERIGSGVERMGAGMGFGLERMAAPIDRVGQTIERMGSGVERMGPAIERMGLSMERMVPAGMGAGLERMGPVMDRMATGLERMGANNLERMGLERMGANSLERMGLERMGANSLERMGPAMGPALGAGIERMGLAMGGGGGASFDRAIEMERGNFGGSFAGSFGGAGGHAPGVARKACQIFVRNLPFDFTWKMLKDKFNECGHVLYADIKMENGKSKGCGVVKFESPEVAERACRMMNGMKLSGREIDVRIDRNA
# Biological target: T1, Maspin (SERPINB5) (human (endogenous in MCF-10A))
# Assay: affinity purification with mass spectrometry; starved MCF-10A cells treated with EGF for 5, 15 and 60 min; sonicated in detergent-free buffer A (1.5 mM EGTA, 1 mM EDTA, 1 mM DTT); 500 µg extract, IP with anti-maspin, sepharose G beads; LTQ-Orbitrap Velos; proteins found only in EGF-treated samples
row,binding,Molecule
1,binds,GAPDH (glyceraldehyde-3-phosphate dehydrogenase) (from UniProt P04406 1-335) (enzyme)
2,binds,hnRNP E (human (endogenous in MCF-10A))
3,binds,hnRNP H (human (endogenous in MCF-10A))
4,binds,B1
